Results as given in publication PMC11253599.
These are yes or no findings as the source states them, for the method shown. In cells and extracts the contact can be indirect. Here binding means that the protein was enriched with, or labelled near, the bait; the list need not be complete.

Target: SAMHD1-HA (human SAMHD1, wild type, from pVR1012-SAMHD1-HA) (human), Q9Y3Z3
Assay: affinity purification with mass spectrometry; HEK293T cells transfected with pSAMHD1-HA or empty vector were lysed together with PMA-treated U937 cells; IP with anti-HA affinity matrix; SDS-PAGE, trypsin digestion, Orbitrap MS
Settings: remark: other sources report otherwise

B1: endogenous MX2 (myxovirus resistance protein 2) of PMA-differentiated U937 cells, P20592 1-715 (protein)
chain: MSKAHKPWPYRRRSQFSSRKYLKKEMNSFQQQPPPFGTVPPQMMFPPNWQGAEKDAAFLAKDFNFLTLNNQPPPGNRSQPRAMGPENNLYSQYEQKVRPCIDLIDSLRALGVEQDLALPAIAVIGDQSSGKSSVLEALSGVALPRGSGIVTRCPLVLKLKKQPCEAWAGRISYRNTELELQDPGQVEKEIHKAQNVMAGNGRGISHELISLEITSPEVPDLTIIDLPGITRVAVDNQPRDIGLQIKALIKKYIQRQQTINLVVVPCNVDIATTEALSMAHEVDPEGDRTIGILTKPDLMDRGTEKSVMNVVRNLTYPLKKGYMIVKCRGQQEITNRLSLAEATKKEITFFQTHPYFRVLLEEGSATVPRLAERLTTELIMHIQKSLPLLEGQIRESHQKATEELRRCGADIPSQEADKMFFLIEKIKMFNQDIEKLVEGEEVVRENETRLYNKIREDFKNWVGILATNTQKVKNIIHEEVEKYEKQYRGKELLGFVNYKTFEIIVHQYIQQLVEPALSMLQKAMEIIQQAFINVAKKHFGEFFNLNQTVQSTIEDIKVKHTAKAENMIQLQFRMEQMVFCQDQIYSVVLKKVREEIFNPLGTPSQNMKLNSHFPSNESSVSSFTEIGIHLNAYFLETSKRLANQIPFIIQYFMLRENGDSLQKAMMQILQEKNRYSWLLQEQSETATKRRILKERIYRLTQARHALCQFSSKEIH
With B1 the binding was “binds”.
